From patent US20200190176A1 (VERITAS THERAPEUTICS, published 2020)
Results are given in words; binding and its absence hold for the method and conditions named. Some entries that bind do so weakly or less than the wild type.

Experiments:
[1] = molecular target: T1, recombinant human FGL2 (human, UniProt Q14314 30-439, limits assumed); experiment: antigen microarray probed with 9D8, fluorescent secondary antibody
T1 construct: also called hFGL2; FGL2/fibroleukin
T1 sequence (looked up): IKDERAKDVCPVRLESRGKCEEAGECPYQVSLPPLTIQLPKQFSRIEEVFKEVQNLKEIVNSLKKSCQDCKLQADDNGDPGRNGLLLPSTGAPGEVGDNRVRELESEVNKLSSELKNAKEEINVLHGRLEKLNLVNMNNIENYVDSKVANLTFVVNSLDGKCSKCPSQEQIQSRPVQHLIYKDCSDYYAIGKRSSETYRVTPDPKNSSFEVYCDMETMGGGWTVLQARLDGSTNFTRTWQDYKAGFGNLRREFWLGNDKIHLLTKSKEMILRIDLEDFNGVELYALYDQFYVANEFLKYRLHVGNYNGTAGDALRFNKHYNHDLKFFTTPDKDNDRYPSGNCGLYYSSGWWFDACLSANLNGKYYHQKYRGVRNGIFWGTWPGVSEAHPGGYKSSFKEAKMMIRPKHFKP

[2] = molecular target: T2, recombinant mouse FGL2 (mouse, UniProt P12804 27-432, limits assumed); experiment: SPR (Biacore 3000), 9D8 captured by goat anti-mouse Fc, recombinant mouse FGL2 flowed as analyte
T2 construct: native mouse FGL2 is said to exist as an oligomer; also called murine recombinant FGL2
T2 sequence (looked up): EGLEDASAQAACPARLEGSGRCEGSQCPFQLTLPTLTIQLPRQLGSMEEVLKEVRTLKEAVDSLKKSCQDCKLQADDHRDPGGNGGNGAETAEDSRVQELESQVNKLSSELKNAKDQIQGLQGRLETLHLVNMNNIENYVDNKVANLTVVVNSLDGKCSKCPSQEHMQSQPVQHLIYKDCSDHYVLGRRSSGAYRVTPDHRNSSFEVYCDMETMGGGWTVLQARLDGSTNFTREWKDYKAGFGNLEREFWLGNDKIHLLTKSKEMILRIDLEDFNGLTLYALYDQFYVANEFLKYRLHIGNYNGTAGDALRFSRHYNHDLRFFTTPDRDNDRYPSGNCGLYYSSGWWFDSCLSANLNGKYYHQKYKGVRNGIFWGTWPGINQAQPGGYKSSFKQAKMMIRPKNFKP

[3] = molecular target: T1, recombinant human FGL2; experiment: SPR (Biacore 3000), 9D8 captured by goat anti-mouse Fc, recombinant human FGL2 flowed as analyte
[4] = molecular target: T1, recombinant human FGL2; experiment: SPR, 0.625 to 10 nM recombinant human FGL2
[5] = molecular target: T1, recombinant human FGL2; experiment: antigen microarray probed with 9D8 and a fluorescent secondary antibody, IgG reactivity as MFI
[6] = molecular target: T1, recombinant human FGL2; experiment: antigen microarray, IgG reactivity (MFI)
[7] = molecular target: T2, recombinant mouse FGL2; experiment: SPR, 10 nM recombinant mouse FGL2
[8] = molecular target: T1, recombinant human FGL2; experiment: ELISA; FACS; IHC; Western blot

binding [1]: binds | binding [2]: binds | binding [3]: binds | binding [4]: binds | binding [5]: binds | binding [6]: binds | binding [7]: binds | binding [8]: binds
B1: anti-FGL2 monoclonal antibody 9D8 (antibody, mouse IgG1, kappa, V domains shown)
VH: EVQLQQSGAELVKPGASVQLSCTASGFNIKDTYIHWVKQRPEQGLEWIGRIDPEDGNTKYDPKFQAKATITADTFSNTAYLQLSSLTSEDTAVYYCARSYGNAYWGQGTLVTVSA
VL: DIVLTQSPASLAVSLGQRATISCRASQSVSTSRYTYMHWYQQKPGQPPKLLIKYASNLDSGVPARFSGSGSGTDFTLNIHPVQEEDTATYYCQHSWEIWAFGGGTKLEIKR
notes: Mouse hybridoma antibody purified from ascites; isotype-matched control was IgG1; here built without leader from variable region plus constant region; also called clone 9D8; antibody to FGL2 (9D8)
